Differences between knockout arms are mostly noise.
Tested on: MDA-MB-231
Test: relative cell number vs DMSO control (72 h) (% of DMSO); higher = less growth inhibition (more cells)
Description: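 QMAP-Seq: a pool of 5 breast cancer cell lines (ZR-75-1, SKBR3, HCC-38, MDA-MB-231, BT-20), each carrying 12 doxycycline-inducible Cas9 sgRNA perturbations (11 knockouts plus non-targeting sgNT), was treated with compounds for 72 h at four 10-fold doses (10 nM-10 uM or 1 nM-1 uM range). Barcodes were amplified and sequenced, and cell number was interpolated from 293T spike-in standard curves. The result is expressed as % of the median of DMSO wells. Two biological replicates.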

Cc1onc(-c2ccccc2)c1-c1ccc(S(N)(=O)=O)cc1 [Valdecoxib]
Settings	relative cell number
sgRNA knockout: sgATF3, 10 nM	118
sgRNA knockout: sgATF3, 100 nM	89.2
sgRNA knockout: sgATF3, 1000 nM	124
sgRNA knockout: sgATF3, 10000 nM	97.9
sgRNA knockout: sgATF4, 10 nM	102
sgRNA knockout: sgATF4, 100 nM	85.7
sgRNA knockout: sgATF4, 1000 nM	87.1
sgRNA knockout: sgATF4, 10000 nM	64.2
sgRNA knockout: sgATF6, 10 nM	102
sgRNA knockout: sgATF6, 100 nM	97.3
sgRNA knockout: sgATF6, 1000 nM	101
sgRNA knockout: sgATF6, 10000 nM	89.9
sgRNA knockout: sgATG7, 10 nM	99.5
sgRNA knockout: sgATG7, 100 nM	101
sgRNA knockout: sgATG7, 1000 nM	104
sgRNA knockout: sgATG7, 10000 nM	103
sgRNA knockout: sgERN1, 10 nM	75.9
sgRNA knockout: sgERN1, 100 nM	108
sgRNA knockout: sgERN1, 1000 nM	111
sgRNA knockout: sgERN1, 10000 nM	99.4
sgRNA knockout: sgHSF1, 10 nM	88.1
sgRNA knockout: sgHSF1, 100 nM	93.7
sgRNA knockout: sgHSF1, 1000 nM	112
sgRNA knockout: sgHSF1, 10000 nM	108
sgRNA knockout: sgHSF2, 10 nM	132
sgRNA knockout: sgHSF2, 100 nM	95.4
sgRNA knockout: sgHSF2, 1000 nM	103
sgRNA knockout: sgHSF2, 10000 nM	81.9
sgRNA knockout: sgKEAP1, 10 nM	109
sgRNA knockout: sgKEAP1, 100 nM	98.6
sgRNA knockout: sgKEAP1, 1000 nM	97.56
sgRNA knockout: sgKEAP1, 10000 nM	99.2
sgRNA knockout: sgNFE2L2, 10 nM	103
sgRNA knockout: sgNFE2L2, 100 nM	106
sgRNA knockout: sgNFE2L2, 1000 nM	99
sgRNA knockout: sgNFE2L2, 10000 nM	96.3
sgRNA knockout: sgSLC35F2, 10 nM	79.4
sgRNA knockout: sgSLC35F2, 100 nM	93.6
sgRNA knockout: sgSLC35F2, 1000 nM	103
sgRNA knockout: sgSLC35F2, 10000 nM	97.21
sgRNA knockout: sgXBP1, 10 nM	104
sgRNA knockout: sgXBP1, 100 nM	96.8
sgRNA knockout: sgXBP1, 1000 nM	96
sgRNA knockout: sgXBP1, 10000 nM	92

C[C@]1(c2nc3c(C(N)=O)cccc3[nH]2)CCCN1 [Veliparib]
Settings	relative cell number
sgRNA knockout: sgATF3, 10 nM	120
sgRNA knockout: sgATF3, 100 nM	123
sgRNA knockout: sgATF3, 1000 nM	93
sgRNA knockout: sgATF3, 10000 nM	81.4
sgRNA knockout: sgATF4, 10 nM	161
sgRNA knockout: sgATF4, 100 nM	160
sgRNA knockout: sgATF4, 1000 nM	123
sgRNA knockout: sgATF4, 10000 nM	106
sgRNA knockout: sgATF6, 10 nM	95.7
sgRNA knockout: sgATF6, 100 nM	113
sgRNA knockout: sgATF6, 1000 nM	82
sgRNA knockout: sgATF6, 10000 nM	77.6
sgRNA knockout: sgATG7, 10 nM	121
sgRNA knockout: sgATG7, 100 nM	133.8
sgRNA knockout: sgATG7, 1000 nM	96.9
sgRNA knockout: sgATG7, 10000 nM	89.4
sgRNA knockout: sgERN1, 10 nM	137
sgRNA knockout: sgERN1, 100 nM	105.69
sgRNA knockout: sgERN1, 1000 nM	98.5
sgRNA knockout: sgERN1, 10000 nM	85.9
sgRNA knockout: sgHSF1, 10 nM	115.1
sgRNA knockout: sgHSF1, 100 nM	112
sgRNA knockout: sgHSF1, 1000 nM	86.7
sgRNA knockout: sgHSF1, 10000 nM	85
sgRNA knockout: sgHSF2, 10 nM	120
sgRNA knockout: sgHSF2, 100 nM	114
sgRNA knockout: sgHSF2, 1000 nM	99.1
sgRNA knockout: sgHSF2, 10000 nM	75.5
sgRNA knockout: sgKEAP1, 10 nM	114
sgRNA knockout: sgKEAP1, 100 nM	121
sgRNA knockout: sgKEAP1, 1000 nM	91.6
sgRNA knockout: sgKEAP1, 10000 nM	80.8
sgRNA knockout: sgNFE2L2, 10 nM	117
sgRNA knockout: sgNFE2L2, 100 nM	118
sgRNA knockout: sgNFE2L2, 1000 nM	92.7
sgRNA knockout: sgNFE2L2, 10000 nM	80.1
sgRNA knockout: sgSLC35F2, 10 nM	100
sgRNA knockout: sgSLC35F2, 100 nM	113
sgRNA knockout: sgSLC35F2, 1000 nM	93.7
sgRNA knockout: sgSLC35F2, 10000 nM	89.8
sgRNA knockout: sgXBP1, 10 nM	116
sgRNA knockout: sgXBP1, 100 nM	129
sgRNA knockout: sgXBP1, 1000 nM	83.3
sgRNA knockout: sgXBP1, 10000 nM	96
